The values below come from publication PMC8597092.

Chains of the proteins cited; added tags and fusions are not shown.
UniProt Q05397: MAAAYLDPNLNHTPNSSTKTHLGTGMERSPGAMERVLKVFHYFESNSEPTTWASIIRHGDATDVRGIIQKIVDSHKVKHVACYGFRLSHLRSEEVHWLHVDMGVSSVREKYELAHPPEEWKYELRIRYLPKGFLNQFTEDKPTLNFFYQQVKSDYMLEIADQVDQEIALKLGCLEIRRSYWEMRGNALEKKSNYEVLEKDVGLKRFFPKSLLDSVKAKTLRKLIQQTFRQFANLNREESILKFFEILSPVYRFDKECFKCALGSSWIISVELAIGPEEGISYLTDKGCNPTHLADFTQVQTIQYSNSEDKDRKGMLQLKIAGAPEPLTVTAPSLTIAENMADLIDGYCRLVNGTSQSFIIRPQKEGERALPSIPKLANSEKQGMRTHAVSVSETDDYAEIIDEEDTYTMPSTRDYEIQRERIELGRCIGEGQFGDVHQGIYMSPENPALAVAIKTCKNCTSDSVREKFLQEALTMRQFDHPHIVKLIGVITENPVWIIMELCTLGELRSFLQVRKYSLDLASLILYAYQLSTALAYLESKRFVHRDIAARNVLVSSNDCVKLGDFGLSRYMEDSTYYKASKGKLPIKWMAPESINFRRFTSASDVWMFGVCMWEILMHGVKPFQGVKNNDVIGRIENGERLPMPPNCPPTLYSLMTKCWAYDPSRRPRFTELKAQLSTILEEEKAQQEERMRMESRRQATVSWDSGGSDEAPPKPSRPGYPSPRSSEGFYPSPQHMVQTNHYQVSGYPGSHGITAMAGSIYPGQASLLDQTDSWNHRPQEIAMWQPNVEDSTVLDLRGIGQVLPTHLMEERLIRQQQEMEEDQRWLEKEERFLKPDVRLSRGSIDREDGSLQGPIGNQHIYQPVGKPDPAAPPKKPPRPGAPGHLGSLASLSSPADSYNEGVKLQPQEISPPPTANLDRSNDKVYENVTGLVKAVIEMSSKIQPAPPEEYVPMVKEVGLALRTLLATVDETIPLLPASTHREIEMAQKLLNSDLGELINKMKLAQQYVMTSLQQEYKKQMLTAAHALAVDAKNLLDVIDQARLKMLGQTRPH
UniProt Q13547: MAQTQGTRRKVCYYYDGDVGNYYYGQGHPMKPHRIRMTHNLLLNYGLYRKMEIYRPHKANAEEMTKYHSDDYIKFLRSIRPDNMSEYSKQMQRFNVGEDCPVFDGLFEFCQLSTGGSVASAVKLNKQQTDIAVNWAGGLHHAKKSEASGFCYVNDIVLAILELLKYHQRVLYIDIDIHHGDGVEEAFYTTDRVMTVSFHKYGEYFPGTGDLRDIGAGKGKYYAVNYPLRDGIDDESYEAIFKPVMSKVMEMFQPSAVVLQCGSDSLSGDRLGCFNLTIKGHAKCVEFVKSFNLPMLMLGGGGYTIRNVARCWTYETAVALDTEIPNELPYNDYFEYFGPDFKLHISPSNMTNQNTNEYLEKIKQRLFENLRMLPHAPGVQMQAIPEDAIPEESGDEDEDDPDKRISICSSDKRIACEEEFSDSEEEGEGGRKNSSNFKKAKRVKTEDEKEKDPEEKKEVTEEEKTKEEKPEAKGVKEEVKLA
UniProt Q92769: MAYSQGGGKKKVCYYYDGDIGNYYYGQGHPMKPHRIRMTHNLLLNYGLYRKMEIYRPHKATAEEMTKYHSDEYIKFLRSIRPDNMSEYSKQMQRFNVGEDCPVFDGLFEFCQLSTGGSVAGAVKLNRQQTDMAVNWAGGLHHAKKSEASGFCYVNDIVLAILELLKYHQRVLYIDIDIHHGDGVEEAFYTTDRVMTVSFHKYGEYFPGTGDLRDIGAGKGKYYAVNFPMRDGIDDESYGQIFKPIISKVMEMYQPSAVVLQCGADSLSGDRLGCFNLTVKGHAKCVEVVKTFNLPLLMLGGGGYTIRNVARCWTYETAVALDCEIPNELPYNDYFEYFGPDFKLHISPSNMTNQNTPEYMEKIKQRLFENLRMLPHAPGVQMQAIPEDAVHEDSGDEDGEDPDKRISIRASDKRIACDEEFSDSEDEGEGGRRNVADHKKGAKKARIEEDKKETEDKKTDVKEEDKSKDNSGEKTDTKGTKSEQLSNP

The target of test [1] is focal adhesion kinase (FAK) (human (endogenous in HepG2 and Huh7)) (UniProt Q05397). Kind of test: co-IP; 500 μg nuclear extract of HepG2 and Huh7 cells, antibody against FAK on protein A/G PLUS-Agarose beads, 2 h at 4 °C, washed with TBS; blotted for FAK or pTyr397FAK, HDAC1 and HDAC2; non-treated cells; Mock: beads alone; cells silenced for FAK as a further sample.
Test [2] shares this target. Kind of test: co-IP; as a2, nuclear extracts of HepG2 and Huh7 cells treated with TAE226 > SOR (TAE226 followed by Sorafenib).

No constants are given. Whether binding was seen depends on the method and setting. Binding seen in cells or lysates may run through a third protein. Some binding calls cover weakened binding; strength is not graded here.

For HDAC1 (from UniProt Q13547 1-482), the binding result is recorded as “binds” in test [1] and “no binding (condition: cells treated with TAE226 > SOR)” in test [2].
For HDAC2 (from UniProt Q92769 1-488), in that order: “binds” and “no binding (condition: cells treated with TAE226 > SOR)”.
